Results are given in words; binding and its absence hold for the method and conditions named. Binding seen in cells or lysates may run through a third protein. Binding can be weak; no strength is given. Sequences can lack the tags named with a protein. Values belong to the binder of their own block, whether it stands above or below them.
Biological target: lsd2-ΔC-FTP (S. pombe) (UniProt Q10135)
Assay: co-IP; FTP-tagged Lsd1 or Lsd2 precipitated from S. pombe whole cell extract with IgG Sepharose beads, 4-6 hours at 4°C; western blot with PAP, anti-myc or anti-HA

Chains of the proteins cited; added tags and fusions are not shown. Lines headed by an entry give the natural chain unless they say otherwise; changes in a name come on top.
UniProt Q10135: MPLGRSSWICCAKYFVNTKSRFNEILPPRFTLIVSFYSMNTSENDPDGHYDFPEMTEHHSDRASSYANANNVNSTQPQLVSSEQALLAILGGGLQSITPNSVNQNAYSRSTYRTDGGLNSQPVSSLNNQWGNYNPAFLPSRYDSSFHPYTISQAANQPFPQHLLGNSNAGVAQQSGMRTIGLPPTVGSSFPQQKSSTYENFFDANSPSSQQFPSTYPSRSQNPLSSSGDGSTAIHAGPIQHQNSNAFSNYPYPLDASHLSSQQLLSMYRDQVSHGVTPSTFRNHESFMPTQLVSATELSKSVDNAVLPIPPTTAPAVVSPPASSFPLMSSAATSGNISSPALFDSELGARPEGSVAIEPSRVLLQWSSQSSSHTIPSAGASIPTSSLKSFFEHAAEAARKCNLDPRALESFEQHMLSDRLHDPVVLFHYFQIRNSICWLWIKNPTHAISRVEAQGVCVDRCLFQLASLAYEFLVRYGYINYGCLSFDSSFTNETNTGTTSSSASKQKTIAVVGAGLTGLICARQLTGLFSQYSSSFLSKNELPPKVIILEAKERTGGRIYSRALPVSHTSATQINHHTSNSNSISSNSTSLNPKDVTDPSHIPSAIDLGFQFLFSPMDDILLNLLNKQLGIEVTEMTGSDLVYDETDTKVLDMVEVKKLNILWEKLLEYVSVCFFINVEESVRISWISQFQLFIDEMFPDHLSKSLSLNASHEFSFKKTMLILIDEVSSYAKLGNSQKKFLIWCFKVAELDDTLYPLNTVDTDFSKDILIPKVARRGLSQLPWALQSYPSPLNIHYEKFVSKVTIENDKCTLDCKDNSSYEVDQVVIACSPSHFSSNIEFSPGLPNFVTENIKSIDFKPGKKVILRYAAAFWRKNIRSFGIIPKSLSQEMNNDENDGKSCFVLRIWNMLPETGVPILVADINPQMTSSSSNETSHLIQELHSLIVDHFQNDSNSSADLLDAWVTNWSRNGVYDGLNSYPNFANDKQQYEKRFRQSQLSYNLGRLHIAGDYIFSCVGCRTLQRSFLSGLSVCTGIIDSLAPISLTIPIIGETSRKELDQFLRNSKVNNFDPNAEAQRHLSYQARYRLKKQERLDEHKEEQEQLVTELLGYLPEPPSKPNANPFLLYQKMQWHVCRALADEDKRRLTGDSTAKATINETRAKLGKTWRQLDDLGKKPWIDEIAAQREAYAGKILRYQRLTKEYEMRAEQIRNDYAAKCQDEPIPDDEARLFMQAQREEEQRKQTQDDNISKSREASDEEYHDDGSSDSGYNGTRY

binding: binds
B1: Phf2-myc (protein, UniProt Q09908 1-538)
chain: MPNSSYYDDDGGSFEAASYPFQFDGSRRFPNDLHPTMFEGEESNQNGGSVLIDQAFQDIQNPNVNSNMHLENQFQHFHEPNKESGAFGSYKNDDVAKEIESSKNQETDAKSEQAPFTEDASSSNYAHHRSADSQTKSALPPNVPASSSPLPPMSIAMNIARKRSWPASLAIERDNTADALFSTEDGREEQFNLEGVKTKSGRKVHRPNHFDPLVKLPTRRRGPGRRPVVALAMKCSVCQRLQSPPKNRIVFCDGCNTPFHQLCHEPYISDELLDSPNGEWFCDDCIRRKKQAPLVTGTTARELNLSSEEKKSYLLSLPISQLVDILLFCEQLHPDIPFYSPKTSTIVQELQSKRSAFTATMNEPVTGDQYLSLNNGTESQSKTTKHSTSLPSTEPVEVDKQYMESEKIPTIDEYLQEYSNEDEIVLQVLESFPAAVSFSTITNTIQAKYSNRKIKNSNITRSLNRLVRKNRVLRDARGSSYELNRTFDADRPSVRPDISITGPIPIDWMLYTPHTEDLTENFCTYYMFDETPIVLSSI

binding: binds
B2: Phf1-myc (protein, UniProt P87233 1-461)
chain: MSQKNFFDEGKSYGVNDYAGFHFENGADSSLPQVSAQGVVRETDSSNFDASPVASGSGISDVGPFGADFHQLQQHVQTPYGGMTMPASSSSGATSVPPEQDPSLSVSFNRLPKSASTKTKNGRIRSSRREDDNRIPFYDLDVAEGAEDDLQEDFHVEGMKTKSGRKIQRPVAYNPNATALKRKSRKVDMVTLCSVCQRGHSPLSNRIVFCDGCNSPYHQLCHHPPIDDATVQDVDAEWFCMKCQYRRAKQPLETGMTAQDLGLSESDKKMYLSSLPTPHLADLILFCEKSYPSLPIYNPRTRELLGEIRHQLLVSSERQQISLQERLHAKQDEAPSDEPAPVPYTASYVANSGTLYDYPTLIRLAIRNTLSPSKDEIFNWLAQNVPLLPTFHDSASEAIRWMVNKGQLVRSGSIYQIATVEEYPHLQPSLLPTFQRNRKVPKLVPVSFPTDDPQNLCATVL

— article PMC10795994
